Assay results published in paper PMC11832904.
These are yes or no findings as the source states them, for the method shown. Binding seen in cells or lysates may run through a third protein. Some entries that bind do so weakly or less than the wild type.

Amino acid sequences for entries named in this document (tags omitted). A change or cut given only in a name is not applied to a line headed by its entry. Chains listed by the source or under a name are the forms on record and can include a tag or linker.
V1-FAM134B2/V2-FAM134B2 (Q9H6L5, form named): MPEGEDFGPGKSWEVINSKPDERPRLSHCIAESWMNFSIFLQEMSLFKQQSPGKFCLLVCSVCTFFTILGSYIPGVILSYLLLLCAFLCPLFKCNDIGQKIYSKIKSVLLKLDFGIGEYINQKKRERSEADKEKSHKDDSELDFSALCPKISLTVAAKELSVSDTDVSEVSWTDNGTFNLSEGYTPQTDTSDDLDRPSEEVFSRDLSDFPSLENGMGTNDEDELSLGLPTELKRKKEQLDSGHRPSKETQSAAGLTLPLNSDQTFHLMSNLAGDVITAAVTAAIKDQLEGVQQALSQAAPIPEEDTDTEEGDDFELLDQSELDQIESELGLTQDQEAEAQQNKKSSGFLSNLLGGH
UniProt Q9DCD6: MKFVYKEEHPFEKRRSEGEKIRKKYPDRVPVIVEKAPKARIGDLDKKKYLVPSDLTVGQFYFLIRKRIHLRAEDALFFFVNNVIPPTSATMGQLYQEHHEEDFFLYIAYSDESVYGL

Biological target: V1-FAM134B2/V2-FAM134B2 (human) (UniProt Q9H6L5)
Assay: co-IP; IP of the GFP tag in C2C12 cells expressing V1/V2-FAM134B1 or V1/V2-FAM134B2, Western blot for Lc3b and Gabarap

With “Gabarap (endogenous) (from UniProt Q9DCD6 1-117)” the binding was “binds”.
